mCherry data for 36 compounds are collected here from the supplement of paper PMC8256030.

The other results are listed elsewhere or left out. Repeats in this data set agree poorly, so a single value says little.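 HEK293T cells were given each compound shortly before transfection with a reporter in which red mCherry is followed by the SARS-CoV-2 frameshift element and then GFP in the −1 frame, so GFP appears only after frameshifting.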

The test system of this assay is SARS-CoV-2 -1 PRF reporter mCherry-FSE-GFP(-1). The assay can be described thus: mCherry (red) intensity as percent of control; higher = higher upstream reporter expression. As to conditions: 10 µM; 24 h; HEK293T.
As for `NS(=O)(=O)c1cc2c(cc1Cl)N=C(CSCc1ccccc1)NS2(=O)=O`, the mCherry stood at 122%. The same measure for `CCCCC[C@H](O)/C=C/[C@@H]1[C@@H](C/C=C\CCCC(=O)O)[C@@H](O)C[C@H]1O` [Dinoprost Tromethamine]: 119%. The same measure for `CC[C@]12CCCN3CCc4c(n(c5ccccc45)[C@@](O)(C(=O)OC)C1)[C@@H]32` [vincamine]: 111%; for `CCN1CCCC1CNC(=O)c1cc(S(N)(=O)=O)ccc1OC` (stereo unspecified): 76.7%; for `Nc1nnnn1-c1ccccc1` [fenamole]: 64.7%. The result for `CC(=O)O[C@]1(C(C)=O)CC[C@H]2[C@@H]3C=C(Cl)C4=CC(=O)CC[C@]4(C)[C@H]3CC[C@@]21C` [Chlormadinone Acetate] reads 110%. Take `O=c1[nH]sc2cc(Cl)ccc12` [ticlatone]: the mCherry was found to be 68.8%.

Turning to `CCNC(=O)[C@@H]1CCCN1C(=O)[C@H](CCCNC(=N)N)NC(=O)[C@H](CC(C)C)NC(=O)[C@@H](CC(C)C)NC(=O)[C@H](Cc1ccc(O)cc1)NC(=O)[C@H](CO)NC(=O)[C@H](Cc1c[nH]c2ccccc12)NC(=O)[C@H](Cc1c[nH]cn1)NC(=O)[C@@H]1CCC(=O)N1` [leuprorelin], the mCherry came out at 85%.

The compound `COc1ccc(-n2nc(C(N)=O)c3c2C(=O)N(c2ccc(N4CCCCC4=O)cc2)CC3)cc1` [apixaban] displayed a mCherry of 110%. The same measure for `CCN1CC(CCN2CCOCC2)C(c2ccccc2)(c2ccccc2)C1=O` (stereo unspecified): 93.1%.

As for `NS(=O)(=O)c1cc(C(=O)O)cc(N2CCCC2)c1Oc1ccccc1` [piretanide], the mCherry was 101%. The same measure for `CN1CCC(=C2c3ccccc3CCc3sccc32)CC1`: 99.4%; for `CN1C2CCCC1CC(NC(=O)c1nn(C)c3ccccc13)C2` (stereo unspecified): 101%. With `O=C(O)CN(CCN(CC(=O)O)CC(=O)O)CC(=O)O` [edetic acid], the mCherry stood at 112%.

`COc1cc(O)c(C(=O)c2ccccc2)cc1S(=O)(=O)O` had a mCherry of 76.6%. In turn, `CCC(=O)c1c(O)cc(O)cc1O` [flopropione] returned a mCherry of 91%. The same measure for `CC(=O)O[C@@]12CO[C@@H]1C[C@H](O)[C@@]1(C)C(=O)[C@H](O)C3=C(C)[C@@H](OC(=O)[C@H](O)[C@@H](NC(=O)OC(C)(C)C)c4ccccc4)C[C@@](O)([C@@H](OC(=O)c4ccccc4)[C@H]21)C3(C)C` [docetaxel]: 63.8%.

Turning to `CCCCC/C=C\C/C=C\C/C=C\CCCCC(=O)O` [gamolenic acid], the mCherry came out at 79.6%. On to `CC(=O)OCC1=C(C(=O)O)N2C(=O)[C@@H](NC(=O)Cc3cccs3)[C@H]2SC1`, for which the mCherry is 125%. The result for `CN(C)C(=O)Cn1cc(-c2ccc(-c3cncc4ccccc34)cc2)cn1` reads 32.9%; that for `NCC1CC(=O)N(Cc2ccccc2)C1` (stereo unspecified) [nebracetam], 121%. Take `CO/N=C(\C(=O)N[C@@H]1C(=O)N2C(C(=O)O)=C(C)CS[C@H]12)c1csc(N)n1` [cefetamet]: the mCherry came to 107%. Compound `CC(C)(C)NC(=O)N[C@H](C(=O)N1C[C@H]2[C@@H]([C@H]1C(=O)NC(CC1CCC1)C(=O)C(N)=O)C2(C)C)C(C)(C)C` (stereo partly specified) [Boceprevir] registered a mCherry of 49%. The same measure for `Cc1c(-c2ccc(O)cc2)n(Cc2ccc(OCCN3CCCCCC3)cc2)c2ccc(O)cc12` [bazedoxifene]: 103%; for `CC(C)CC(N)=O`: 100%; for `CC(=O)OCC(=O)[C@@]1(O)CC[C@H]2[C@@H]3CCC4=CC(=O)C=C[C@]4(C)[C@H]3[C@@H](O)C[C@@]21C`: 123%. The result for `N=C(N)c1ccc(OCCCCCCOc2ccc(C(=N)N)cc2)cc1` [hexamidine] reads 36.5%; that for `CCCC(=O)N1CCCN(c2nc(N)c3cc(OC)c(OC)cc3n2)CC1` [bunazosin], 104%.

Compound `N[C@@H](C(=O)N[C@@H]1C(=O)N2C(C(=O)O)=C(Cl)CS[C@H]12)c1ccccc1` came in with a mCherry of 95.2%.

Compound `CC(C)S(=O)(=O)n1c(N)nc2ccc(/C(=N/O)c3ccccc3)cc21` [enviroxime] came in with a mCherry of 33.4%. The result for `O=C(O)CCCCCCCC(=O)O` [azelaic acid] reads 115%; that for `Nc1cc(Cl)c(N=C2NCCN2)c(Cl)c1` [apraclonidine], 117%. The same measure for `Cc1cc(C(C)(C)CC(C)(C)C)ccc1OCCOCC[N+](C)(C)Cc1ccccc1` [methylbenzethonium chloride]: 118%; for `CN1CCN(c2cc3c(nn2)Oc2ccccc2N3C)CC1` [pipofezine]: 102%; for `CN1CCCCC1CCN1c2ccccc2Sc2ccc([S+](C)[O-])cc21` (stereo unspecified) [mesoridazine]: 87.8%. The result for `C=CCc1cc(OC)c(O)c(C(=O)NCCO)c1` [alibendol] reads 90.2%.
